No constants are given. Whether binding was seen depends on the method and setting. In cells and extracts the contact can be indirect. Some binding calls cover weakened binding; strength is not graded here.
T1: integrin α 11 (human (endogenous in Het-1A)) (UniProt Q9UKX5)
T1 sequence: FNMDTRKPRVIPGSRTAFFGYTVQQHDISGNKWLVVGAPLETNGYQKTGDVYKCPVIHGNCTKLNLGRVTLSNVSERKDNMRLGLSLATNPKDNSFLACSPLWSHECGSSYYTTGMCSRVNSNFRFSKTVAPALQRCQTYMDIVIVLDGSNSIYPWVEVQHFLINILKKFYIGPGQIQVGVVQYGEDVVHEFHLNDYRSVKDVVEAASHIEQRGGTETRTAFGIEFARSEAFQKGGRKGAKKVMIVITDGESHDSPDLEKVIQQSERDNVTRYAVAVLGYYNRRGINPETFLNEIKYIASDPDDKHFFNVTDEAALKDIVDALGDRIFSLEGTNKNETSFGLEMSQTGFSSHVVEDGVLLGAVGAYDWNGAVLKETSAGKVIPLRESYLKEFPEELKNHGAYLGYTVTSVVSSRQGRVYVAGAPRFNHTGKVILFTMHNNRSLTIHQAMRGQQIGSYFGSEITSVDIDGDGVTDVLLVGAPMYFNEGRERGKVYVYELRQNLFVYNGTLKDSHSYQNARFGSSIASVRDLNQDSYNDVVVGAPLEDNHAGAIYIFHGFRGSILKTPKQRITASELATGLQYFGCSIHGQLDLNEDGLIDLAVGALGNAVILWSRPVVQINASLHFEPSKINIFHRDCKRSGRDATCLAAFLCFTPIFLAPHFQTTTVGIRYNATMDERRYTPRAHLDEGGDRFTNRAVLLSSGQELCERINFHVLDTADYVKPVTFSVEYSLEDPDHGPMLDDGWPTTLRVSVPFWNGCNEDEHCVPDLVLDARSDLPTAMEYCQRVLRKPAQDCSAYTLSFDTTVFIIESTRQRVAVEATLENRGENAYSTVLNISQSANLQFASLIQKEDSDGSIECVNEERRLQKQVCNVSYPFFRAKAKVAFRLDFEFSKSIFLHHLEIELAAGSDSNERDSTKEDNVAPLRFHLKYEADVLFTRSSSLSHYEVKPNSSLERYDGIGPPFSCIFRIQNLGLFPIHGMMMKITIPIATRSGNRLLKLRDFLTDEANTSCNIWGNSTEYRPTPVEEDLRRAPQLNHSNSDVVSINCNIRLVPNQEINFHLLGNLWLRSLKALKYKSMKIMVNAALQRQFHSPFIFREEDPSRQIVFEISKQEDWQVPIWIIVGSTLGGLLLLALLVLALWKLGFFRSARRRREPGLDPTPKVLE


Tests used:
[1] = molecular target: T1, integrin α 11 (human (endogenous in Het-1A)); assay: condition: only with excessive CCN1 antibody added to the cell culture; proximity ligation; Duolink PLA in situ on Het-1A cells treated with recombinant CCN1 (100 ng/mL, 6 hours), fixed in cold acetone; goat anti-integrin α 11 coupled with rabbit anti-CCN1; probes in proximity of less than 40 nm; only the binder purified
[2] = molecular target: T1, integrin α 11 (human (endogenous in Het-1A)); assay: proximity ligation; Duolink PLA in situ on Het-1A cells treated with recombinant CCN1 (100 ng/mL, 6 hours), fixed in cold acetone; goat anti-integrin α 11 coupled with rabbit anti-CCN1; probes in proximity of less than 40 nm; only the binder purified
[3] = molecular target: T1, integrin α 11 (human (endogenous in Het-1A)); assay: proximity ligation; Duolink PLA in situ on nontreated (control) Het-1A cells, fixed in cold acetone; goat anti-integrin α 11 coupled with rabbit anti-CCN1; both proteins endogenous

Binder | binding [1] | binding [2] | binding [3]
recombinant human CCN1 protein (ligand, UniProt O00622 25-381) TCPAACHCPLEAPKCAPGVGLVRDGCGCCKVCAKQLNEDCSKTQPCDHTKGLECNFGASSTALKGICRAQSEGRPCEYNSRIYQNGESFQPNCKHQCTCIDGAVGCIPLCPQELSLPNLGCPNPRLVKVTGQCCEEWVCDEDSIKDPMEDQDGLLGKELGFDASEVELTRNNELIAVGKGSSLKRLPVFGMEPRILYNPLQGQKCIVQTTSWSQCSKTCGTGISTRVTNDNPECRLVKETRICEVRPCGQPVYSSLKKGKKCSKTKKSPEPVRFTYAGCLSVKKYRPKYCGSCVDGRCCTPQLTRTVKMRFRCEDGETFSKNVMMIQSCKCNYNCPHANEAAFPFYRLFNDIHKFRD | no binding | binds | 
endogenous CCN1 (protein, UniProt O00622 25-381) TCPAACHCPLEAPKCAPGVGLVRDGCGCCKVCAKQLNEDCSKTQPCDHTKGLECNFGASSTALKGICRAQSEGRPCEYNSRIYQNGESFQPNCKHQCTCIDGAVGCIPLCPQELSLPNLGCPNPRLVKVTGQCCEEWVCDEDSIKDPMEDQDGLLGKELGFDASEVELTRNNELIAVGKGSSLKRLPVFGMEPRILYNPLQGQKCIVQTTSWSQCSKTCGTGISTRVTNDNPECRLVKETRICEVRPCGQPVYSSLKKGKKCSKTKKSPEPVRFTYAGCLSVKKYRPKYCGSCVDGRCCTPQLTRTVKMRFRCEDGETFSKNVMMIQSCKCNYNCPHANEAAFPFYRLFNDIHKFRD |  |  | binds weakly

From publication PMC3371350
